# Results from cells or extracts need not show a direct contact. Negatives hold for the conditions tested. Tags and fusion partners may be left off the protein sequences shown.
# Target: T1, DHX36 (endogenous, HeLa) (Homo sapiens) (UniProt Q9H2U1)
# T1 sequence (looked up, limits assumed): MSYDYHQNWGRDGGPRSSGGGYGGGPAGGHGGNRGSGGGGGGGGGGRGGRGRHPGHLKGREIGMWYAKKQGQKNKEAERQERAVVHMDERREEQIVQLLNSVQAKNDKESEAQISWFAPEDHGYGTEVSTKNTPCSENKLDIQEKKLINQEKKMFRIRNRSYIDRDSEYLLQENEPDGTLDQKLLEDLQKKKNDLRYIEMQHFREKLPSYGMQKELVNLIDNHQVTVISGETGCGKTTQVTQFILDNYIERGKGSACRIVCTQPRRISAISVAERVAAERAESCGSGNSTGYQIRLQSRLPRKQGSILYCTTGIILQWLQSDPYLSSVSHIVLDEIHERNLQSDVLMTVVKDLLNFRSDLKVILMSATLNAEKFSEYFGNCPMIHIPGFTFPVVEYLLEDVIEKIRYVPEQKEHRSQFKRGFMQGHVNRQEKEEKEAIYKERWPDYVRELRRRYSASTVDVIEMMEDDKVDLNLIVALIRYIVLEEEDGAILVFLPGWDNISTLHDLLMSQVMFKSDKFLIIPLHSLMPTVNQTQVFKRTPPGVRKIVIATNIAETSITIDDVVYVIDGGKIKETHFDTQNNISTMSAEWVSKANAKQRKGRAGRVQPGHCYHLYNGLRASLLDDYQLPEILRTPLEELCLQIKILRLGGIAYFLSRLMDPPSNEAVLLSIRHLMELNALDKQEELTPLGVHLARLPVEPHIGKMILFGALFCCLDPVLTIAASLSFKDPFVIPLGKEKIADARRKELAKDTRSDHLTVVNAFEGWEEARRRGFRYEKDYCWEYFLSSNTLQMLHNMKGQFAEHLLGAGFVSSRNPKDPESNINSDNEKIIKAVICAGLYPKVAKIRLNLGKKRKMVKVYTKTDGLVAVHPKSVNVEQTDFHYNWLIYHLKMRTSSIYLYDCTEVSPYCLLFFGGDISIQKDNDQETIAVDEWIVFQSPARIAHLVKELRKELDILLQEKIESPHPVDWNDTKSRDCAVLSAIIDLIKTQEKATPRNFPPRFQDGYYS
# Assay: binding assay
# Settings: 5'-hexynyl clicked to azide-modified AHPC; little to no merged foci in HeLa, data not shown; protein in cells; label: 3'-FAM; variant of FAM_rG4_A (hTERC rG4 WT-AHPC conjugate)
sequence,measurement,value
GAAUUGCGGAGAAUGAACCU [FAM_rG4 mut_A (hTERC rG4 Mut-AHPC conjugate)],binding result,no binding

# From patent publication US20250170247A1, “CONJUGATES, AND USES THEREOF” (CITY UNIVERSITY OF HONG KONG, priority 2023, published 2025)
